Some entries share one result that the patent states for a list of compounds. Some compounds share one range, which may span the group rather than tell each member.
Tested on: mice
Assay: tail suspension test in mice
Assay type: in vivo
Conditions: male Balb/cJ mice, 30 min prior to testing, test doses of 1 mg/kg, 0,1 mg/kg and 0,01 mg/kg, vs vehicle control

SMILES | reduction of immobility
CN(C)CCOCc1scc2c1-c1ccccc1Sc1ccccc1-2 [[2-(2,8-dithia-dibenzo[e,h]azulen-1-ylmethoxy)-ethyl]-dimethyl-amine] | 40-100%
CN(C)CCCOCc1scc2c1-c1ccccc1Sc1ccccc1-2 [[3-(2,8-dithia-dibenzo[e,h]azulen-1-ylmethoxy)-propyl]-dimethyl-amine] | 40-100%
CN(C)CCOCc1scc2c1-c1ccccc1Oc1ccccc1-2 [dimethyl-[2-(8-oxa-2-thia-dibenzo[e,h]azulen-1-ylmethoxy)-ethyl]-amine] | 40-100%
CN(C)CCCOCc1scc2c1-c1ccccc1Oc1ccccc1-2 [dimethyl-[3-(8-oxa-2-thia-dibenzo[e,h]azulen-1-ylmethoxy)-propyl]-amine] | 40-100%
